Record: PubChem BioAssay AID1259308 (NCATS, 2017)
Shown is a random part of about 59,000 deposited reagents. About 1,510 of them (2.6%) count as active. 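Calls use total luciferase alone and ignore viability, so some active siRNAs may act by altering cell number.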 A number with no mark means an inactive call. Reagents against one gene are numbered here. Further read-outs or replicates are left out here. Reagent sequences are not shown.

Test: 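Knock-downs that increase output of a recombinant reporter protein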 (primary screen)
System: human HEK293 embryonic kidney cells stably expressing firefly luciferase (HEK-CMV-Luc2-Hygro)
Reagent: single siRNA against human genes, 0.8 pmol siRNA per well
Duration: 72 h
Detection: 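Luciferase light (ONE-Glo) measured on one replicate plate set and viability (CellTiter-Glo) on the other, scaled to a negative control siRNA, with robust z-scores and luciferase per cell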
Direction: total luciferase, z-score and total luciferase, % of control: higher = more reporter protein produced
Rule for the call: 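Active when the median/MAD z-score for overall luciferase is greater than 3; a gene was taken forward for validation with new siRNAs if at least two of its three siRNAs passed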
Meaning of the calls: active = raised luciferase; inactive = no rise

Depletion of CYLC2 (GeneID 1539) #1 came out at: total luciferase, z-score 1.77; total luciferase, % of control 117.
CYLC2 (GeneID 1539) #2 scored total luciferase, z-score -0.473; total luciferase, % of control 72.5.
Depletion of CYLC2 (GeneID 1539) #3 came out at: total luciferase, z-score -1.19; total luciferase, % of control 58.3.
Against CYREN (GeneID 78996) #1 the deposit lists total luciferase, z-score 1.56; total luciferase, % of control 113.
CYREN (GeneID 78996) #2 showed total luciferase, z-score 0.0426; total luciferase, % of control 82.7.
With knock-down of CYREN (GeneID 78996) #3, the record shows total luciferase, z-score -0.886; total luciferase, % of control 64.3.
With knock-down of TSR1 (GeneID 55720) #1, the screen gave total luciferase, z-score 0.133; total luciferase, % of control 84.5.
Knock-down of TSR1 (GeneID 55720) #2 came out at: total luciferase, z-score -0.0283; total luciferase, % of control 81.3.
TSR1 (GeneID 55720) #3 gave total luciferase, z-score 0.00226; total luciferase, % of control 81.9.
With knock-down of MPDZ (GeneID 8777) #1 the results were total luciferase, z-score -0.133; total luciferase, % of control 79.2.
Silencing of MPDZ (GeneID 8777) #2 resulted in: total luciferase, z-score 0.22; total luciferase, % of control 86.3.
Silencing of MPDZ (GeneID 8777) #3 resulted in: total luciferase, z-score -0.0806; total luciferase, % of control 80.3.
With knock-down of KANSL3 (GeneID 55683) #1, the screen gave total luciferase, z-score 0.814; total luciferase, % of control 98.1.
KANSL3 (GeneID 55683) #2 showed total luciferase, z-score 0.475; total luciferase, % of control 91.3.
With knock-down of KANSL3 (GeneID 55683) #3 the results were total luciferase, z-score -1.82; total luciferase, % of control 45.8.
After knock-down of BMP15 (GeneID 9210) #1 the results were total luciferase, z-score 0.068; total luciferase, % of control 83.2.
For BMP15 (GeneID 9210) #2 the deposit lists total luciferase, z-score 0.322; total luciferase, % of control 88.3.
After knock-down of BMP15 (GeneID 9210) #3, the record shows total luciferase, z-score 1.76; total luciferase, % of control 117.
Against FAIM (GeneID 55179) #1, the values are total luciferase, z-score -0.243; total luciferase, % of control 77.
With knock-down of FAIM (GeneID 55179) #2 the results were total luciferase, z-score 1.31; total luciferase, % of control 108.
FAIM (GeneID 55179) #3 gave total luciferase, z-score 2.3; total luciferase, % of control 128.
MIX23P3 (GeneID 732448) #1 scored total luciferase, z-score 1.71; total luciferase, % of control 116.
Depletion of MIX23P3 (GeneID 732448) #2 came out at: total luciferase, z-score -0.185; total luciferase, % of control 78.2.
Against MIX23P3 (GeneID 732448) #3 the deposit lists total luciferase, z-score -0.905; total luciferase, % of control 63.9.
With knock-down of INPP5J (GeneID 27124) #1, the screen gave total luciferase, z-score 1.21; total luciferase, % of control 106.
Against INPP5J (GeneID 27124) #2, the entry reads total luciferase, z-score -2.07; total luciferase, % of control 40.7.
INPP5J (GeneID 27124) #3 scored total luciferase, z-score -0.0657; total luciferase, % of control 80.6.
Depletion of KLHL28 (GeneID 54813) #1 came out at: total luciferase, z-score 0.791; total luciferase, % of control 97.6.
After knock-down of KLHL28 (GeneID 54813) #2 the results were total luciferase, z-score -0.624; total luciferase, % of control 69.5.
KLHL28 (GeneID 54813) #3 gave total luciferase, z-score 0.626; total luciferase, % of control 94.3.
Against CD300LG (GeneID 146894) #1, the entry reads total luciferase, z-score 2.22; total luciferase, % of control 126.
CD300LG (GeneID 146894) #2 showed total luciferase, z-score -0.098; total luciferase, % of control 79.9.
Depletion of CD300LG (GeneID 146894) #3 came out at: total luciferase, z-score 0.107; total luciferase, % of control 84.
Against MON1B (GeneID 22879) #1 the deposit lists total luciferase, z-score 3.08 (active); total luciferase, % of control 143.
After knock-down of MON1B (GeneID 22879) #2, the record shows total luciferase, z-score -0.235; total luciferase, % of control 77.2.
With knock-down of MON1B (GeneID 22879) #3, the screen gave total luciferase, z-score -0.12; total luciferase, % of control 79.5.
Silencing of LRRC8E (GeneID 80131) #1 came out at: total luciferase, z-score -0.328; total luciferase, % of control 75.4.
Against LRRC8E (GeneID 80131) #2, the values are total luciferase, z-score -2.32; total luciferase, % of control 35.8.
Against LRRC8E (GeneID 80131) #3, the entry reads total luciferase, z-score -1.55; total luciferase, % of control 51.1.
ADO (GeneID 84890) #1 gave total luciferase, z-score 1.12; total luciferase, % of control 104.
ADO (GeneID 84890) #2 gave total luciferase, z-score 0.303; total luciferase, % of control 87.9.
Against ADO (GeneID 84890) #3, the entry reads total luciferase, z-score -0.375; total luciferase, % of control 74.4.

An excerpt from above, limited to “total luciferase, z-score”:
KANSL3 (GeneID 55683) #1: 0.814
KANSL3 (GeneID 55683) #2: 0.475
KANSL3 (GeneID 55683) #3: -1.82
